Where a name gives a salt, the structure may show the parent alone. Some entries share one result that the patent states for a list of compounds.
target: T1, MC4-R (Homo sapiens, UniProt P32245); test: cAMP assay for MC4-R antagonist activity in stably transfected K293 cells; type: cell-based; conditions: MC4-R versus MC1-R
T1 construct: expressed in transfected cells

Protein sequences, listed by entry. Tags and fused reporters are not part of them.
UniProt P32245, whole entry: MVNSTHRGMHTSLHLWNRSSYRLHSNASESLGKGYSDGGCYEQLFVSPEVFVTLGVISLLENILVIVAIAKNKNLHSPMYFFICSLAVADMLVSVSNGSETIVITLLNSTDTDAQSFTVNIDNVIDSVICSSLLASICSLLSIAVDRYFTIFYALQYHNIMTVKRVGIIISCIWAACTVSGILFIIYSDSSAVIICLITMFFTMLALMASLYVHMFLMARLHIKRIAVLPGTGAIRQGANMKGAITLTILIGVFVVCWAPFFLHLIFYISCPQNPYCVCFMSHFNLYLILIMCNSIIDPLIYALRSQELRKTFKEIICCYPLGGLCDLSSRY

Selectivity for MC4-R than MC1-R, MC3-R and MC5-R, at least 100 fold:
COc1ccc2ccccc2c1CSc1ccccc1C1=NCCCN1 [AL, 2-[2-(2-Methoxy-napthalen-1-ylmethylsulfanyl)-phenyl]-1,4,5,6-tetrahydropyrimidine; hydrochloride]
COc1ccc(Br)cc1CSc1ccccc1C1=NCCCN1 [AM, 2-[2-(5-bromo-2-methoxy-benzylsulfanyl)-phenyl]-1,4,5,6-tetrahydropyrimidine; hydrochloride]
c1ccc(C2=NCCCN2)c(SCc2cccc3ccccc23)c1 [O, 2-[2-(Naphthalen-1-ylmethylsulfanyl)-phenyl]-1,4,5,6-tetrahydro-pyrimidine; hydrochloride]

From patent publication US7375125B2, “Melanocortin-4 receptor binding compounds and methods of use thereof” (Ore Pharmaceuticals, Inc., priority 1999, dated 2008)
